PubChem BioAssay AID1259254 | NCATS, 2017
Test: 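Finding genes that stop cells copying their DNA twice in one cycle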 (primary screen). System: human HCT116 colorectal cancer cells. Reagent: single siRNA against human genes. Duration: 3 days. Measured: 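Imaged Hoechst DNA stain sorts each cell into a cycle phase by DNA amount; per plate, G2 fraction set to 0% for non-targeting and 100% for GMNN siRNA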. Scale: G2 robust z-score and G2 cells, % of GMNN control: higher = more G2 cells, more excess DNA replication. Call rule: 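An siRNA counts as active if its G2 robust z-score lies at least 5 MADs above the screen median; here such calls match roughly 38% of GMNN control or more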.
In all, the deposit lists about 59,000 reagents; below is a random part of them. About 1,550 of all reagents (2.6%) count as active. 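G2 share is only a proxy for re-replication; each gene was hit by three separate siRNAs, and active genes were retested.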 The numbers tell different reagents against one gene apart. Further read-outs or replicates are left out here. Not stated in the record: the amount of reagent.

KBTBD6 #1 scored G2 robust z-score -0.581; G2 cells, % of GMNN control -1.12; inactive. With knock-down of KBTBD6 #2 the results were G2 robust z-score -0.929; G2 cells, % of GMNN control -3.57; inactive. For KBTBD6 #3, the entry reads G2 robust z-score 0.00129; G2 cells, % of GMNN control 2.98; inactive. Against DHX57 #1, the values are G2 robust z-score -0.704; G2 cells, % of GMNN control -1.99; inactive. Depletion of DHX57 #2 gave: G2 robust z-score 0.0635; G2 cells, % of GMNN control 3.41; inactive. After knock-down of DHX57 #3, the record shows G2 robust z-score -0.971; G2 cells, % of GMNN control -3.86; inactive.

For H2ACP1 #1, the entry reads G2 robust z-score -0.477; G2 cells, % of GMNN control -0.39; inactive. With knock-down of H2ACP1 #2, the record shows G2 robust z-score 3.83; G2 cells, % of GMNN control 29.9; inactive. H2ACP1 #3 gave G2 robust z-score 1.15; G2 cells, % of GMNN control 11.1; inactive. Silencing of S100A16 #1 gave: G2 robust z-score -0.234; G2 cells, % of GMNN control 1.32; inactive. Knock-down of S100A16 #2 came out at: G2 robust z-score 0.883; G2 cells, % of GMNN control 9.18; inactive. Knock-down of S100A16 #3 resulted in: G2 robust z-score 1.83; G2 cells, % of GMNN control 15.8; inactive.

Depletion of CILP2 #1 came out at: G2 robust z-score 1.72; G2 cells, % of GMNN control 15; inactive. Silencing of CILP2 #2 gave: G2 robust z-score -0.876; G2 cells, % of GMNN control -3.2; inactive. Against CILP2 #3, the values are G2 robust z-score 2.28; G2 cells, % of GMNN control 19; inactive. Depletion of UBTF #1 came out at: G2 robust z-score 0.934; G2 cells, % of GMNN control 9.54; inactive. UBTF #2 showed G2 robust z-score -0.143; G2 cells, % of GMNN control 1.96; inactive. UBTF #3 gave G2 robust z-score -0.524; G2 cells, % of GMNN control -0.718; inactive.

With knock-down of PPP1R1A #1 the results were G2 robust z-score 1.16; G2 cells, % of GMNN control 11.1; inactive. Against PPP1R1A #2, the values are G2 robust z-score 0.335; G2 cells, % of GMNN control 5.32; inactive. Depletion of PPP1R1A #3 came out at: G2 robust z-score 2.21; G2 cells, % of GMNN control 18.5; inactive. With knock-down of ASB16-AS1 #1 the results were G2 robust z-score 2.53; G2 cells, % of GMNN control 20.8; inactive. ASB16-AS1 #2 showed G2 robust z-score -0.597; G2 cells, % of GMNN control -1.23; inactive. Against ASB16-AS1 #3, the values are G2 robust z-score 0.575; G2 cells, % of GMNN control 7.02; inactive.
